Measurements as given in PubChem BioAssay AID1347131 (National Center for Advancing Translational Sciences (NCATS), 2019).
The campaign covered roughly 410,000 compounds. About 2,000 (0.49%) were called active. Inconclusive results, whose numbers are uncertain, are shown with a selection of clear calls. Calls follow the shape of the full dose curve; tested in HEK293 reporter line. Potencies beside an inconclusive call are fits to weak or partial responses and may not hold up.

assay: qHTS Assay for Foot and Mouth Disease Virus Antivirals: Primary Screen against the MLPCN compound library; details: FMDV antiviral cell-based qHTS; activity, negative = inhibition: at 57.9 µM (top of the series); also: nearly all actives have a fitted effect of over 55% in size
Potency is read from the fitted curve at half-maximal effect.

| SMILES | Potency | activity, negative = inhibition |
| --- | --- | --- |
| O=C(OCc1c(F)cccc1Cl)c1cc([N+](=O)[O-])ccc1N1CCOCC1 | inconclusive: 28.2 µM [inhibitor, partial curve, poor fit] |  |
| O=C(NCCc1ccccc1)c1ccc2c(c1)OCCCO2 | inconclusive: 1.12 µM [inhibitor, full curve, poor fit] |  |
| Cc1ccc(/C=N/Nc2ccnc3cc(Cl)ccc23)c(C)c1 | inconclusive: 39.8 µM [inhibitor, partial curve, poor fit] |  |
| Cc1ccc(Nc2cc(C)nn2-c2nc(C)cc(=O)[nH]2)cc1 | inconclusive: 3.55 µM [inhibitor, full curve, poor fit] |  |
| O=C(CN1C(=O)CCSc2ccccc21)Nc1ccc(C(F)(F)F)cc1 | inconclusive: 22.4 µM [inhibitor, partial curve, poor fit] |  |
| Cc1cc(C)nc(/N=c2/ssnc2Cl)c1 | inconclusive: 28.2 µM [inhibitor, partial curve, poor fit] |  |
| COc1cc(NS(=O)(=O)c2cc(Br)cc3c2N(C(=O)C2CC2)CC3)cc(OC)c1 | active: 12.6 µM |  |
| Cc1ccc2nc(-c3ccc(NC(=O)CCS(=O)(=O)c4ccccc4)cc3)sc2c1 | active: 10 µM |  |
| O=C(O)CCS(=O)(=O)c1nc(-c2cccs2)cc(C(F)(F)F)n1 | inconclusive: 14.1 µM [inhibitor, partial curve, poor fit] |  |
| Cc1ccccc1N1CCN(C2CCCN(C(=O)CCC3(C)CC3)C2)CC1 (centres undefined) |  | inactive: -31.3% |
| N#Cc1cccc(NC(=O)C2CCN(c3nc(-c4ccc(Cl)cc4)no3)CC2)c1 | inconclusive: 25.1 µM [inhibitor, partial curve, poor fit] |  |
| COc1ccc(-c2ccc3oc(-c4ccc(OC)cc4)c(C#CCO)c3c2)cc1 | inconclusive: 8.91 µM [inhibitor, partial curve, poor fit] |  |
| Cn1c2c(c(=O)n(C)c1=O)C(C(F)(F)F)(C(F)(F)F)N=C(CCC1CCCCC1)N2 | inconclusive: 14.1 µM [inhibitor, partial curve, poor fit] |  |
| COc1ccc(NS(=O)(=O)c2ccc(-n3cccn3)cc2)cc1OC |  | inactive: -26.1% |
| CCN(C(=O)COC(=O)c1ccccc1Nc1ccccc1)c1c(N)n(Cc2ccccc2)c(=O)[nH]c1=O | inconclusive: 3.55 µM [inhibitor, full curve] |  |
| COc1ccccc1-c1c(C(F)(F)F)oc2cc(OS(C)(=O)=O)ccc2c1=O | inconclusive: 31.6 µM [inhibitor, partial curve, poor fit] |  |
| O=[N+]([O-])c1c(NCCCO)cc(N2CCN(Cc3ccc4c(c3)OCO4)CC2)c2nonc12 | inconclusive: 17.8 µM [inhibitor, partial curve, poor fit] |  |
| CC(C)c1ccc(OCC(=O)NCC(c2ccc(Cl)cc2)N2CCOCC2)cc1 (centres undefined) | inconclusive: 10 µM [inhibitor, partial curve, poor fit] |  |
| Cc1ccc(C2CC(c3cccc(Br)c3)n3nc(N)nc3N2)cc1 (centres undefined) | inconclusive: 7.94 µM [inhibitor, partial curve] |  |
| CCNC(=S)NCCC1=c2ccccc2=N/C1=C\c1c(O)n(C)c(=O)n(C)c1=O | inconclusive: 39.8 µM [inhibitor, partial curve, poor fit] |  |

Two compounds drawn at random from those above, as already listed:

| SMILES | Potency | activity, negative = inhibition |
| --- | --- | --- |
| COc1ccccc1-c1c(C(F)(F)F)oc2cc(OS(C)(=O)=O)ccc2c1=O | inconclusive: 31.6 µM [inhibitor, partial curve, poor fit] |  |
| O=[N+]([O-])c1c(NCCCO)cc(N2CCN(Cc3ccc4c(c3)OCO4)CC2)c2nonc12 | inconclusive: 17.8 µM [inhibitor, partial curve, poor fit] |  |

Following part

| SMILES | Potency | activity, negative = inhibition |
| --- | --- | --- |
| O=C(Nc1ccc(Cl)c(Cl)c1)Nc1ccccc1C(=O)O | inconclusive: 14.1 µM [inhibitor, single point] |  |
| COc1cccc(/C=C/c2ccc3ccccc3n2)c1OC(C)=O | inconclusive: 10 µM [inhibitor, partial curve, poor fit] |  |
| O=C(COc1ccc(Br)cc1)Nc1ccccc1C(=O)NC1CC1 | inconclusive: 2.51 µM [inhibitor, full curve] |  |
| CCOC(=O)CCS(=O)(=O)c1nc(-c2ccccc2)cc(C(F)(F)F)n1 | inconclusive: 20 µM [inhibitor, partial curve, poor fit] |  |
| CNC(=O)c1cccn(Cc2cc(C(F)(F)F)cc(C(F)(F)F)c2)c1=O | inconclusive: 5.62 µM [inhibitor, partial curve] |  |
| CCCOc1ccccc1N1C(=O)CC(N(O)c2ccccc2)C1=O (centres undefined) | inconclusive: 15.8 µM [inhibitor, partial curve, poor fit] |  |
| Cn1nnnc1Sc1ncnc2scc(-c3cccc(C(F)(F)F)c3)c12 | inconclusive: 22.4 µM [inhibitor, partial curve, poor fit] |  |
| Cc1nc(-c2coc3cc(O)c(C)cc3c2=O)cs1 | inconclusive: 11.2 µM [inhibitor, partial curve, poor fit] |  |
| COc1ccc(NC(=O)c2ccc(COc3ccccc3OC)o2)cc1OC |  | inactive: -31.3% |
| Fc1ccccc1-c1nc(-c2ccccc2)no1 | inconclusive: 14.1 µM [inhibitor, single point] |  |
| Cc1cccc(-n2nnnc2S(C)(=O)=O)c1 | inconclusive: 25.1 µM [inhibitor, partial curve, poor fit] |  |
| COc1ccc(-c2nsc3c(N4CCCCC4)ncnc23)cc1 |  | inactive: -36.3% |
| CC(=O)c1ccc(NC(=O)CSc2nnc(Cn3c(=O)sc4ccccc43)n2C)cc1 | inconclusive: 1 µM [inhibitor, full curve] |  |
| O=C(Nc1ccccc1)c1cc(C2CCCN(C(=O)C3CC3)C2)on1 (centres undefined) | inconclusive: 15.8 µM [inhibitor, single point] |  |
| CC(C)c1cc(CNC(=O)C2CCC(=O)N(CCc3ccc(Cl)cc3)C2)on1 (centres undefined) | inconclusive: 20 µM [inhibitor, partial curve, poor fit] |  |
| COc1ccccc1-c1ncn(Cc2cccc(-c3ccccc3)c2)c1CC(C)C | inconclusive: 28.2 µM [inhibitor, partial curve, poor fit] |  |
| O=C(Nc1nc(-c2ccc(F)c(F)c2)cs1)c1ccc(OCC2CCCO2)cc1 (centres undefined) | inconclusive: 2 µM [inhibitor, partial curve, poor fit] |  |
| N#C/C(=C\c1cccnc1)C(=O)Nc1cccc2ccccc12 | inconclusive: 25.1 µM [inhibitor, partial curve, poor fit] |  |
| CCOC(=O)C1(Cc2ccc(Cl)cc2)CCN(C(=O)c2sc(C)nc2C)CC1 | inconclusive: 31.6 µM [inhibitor, partial curve, poor fit] |  |
| CCCn1c(C)cc(C(=O)COC(=O)c2c(C)nn(-c3ccccc3)c2C)c1C | inconclusive: 35.5 µM [inhibitor, partial curve, poor fit] |  |

| SMILES | Potency | activity, negative = inhibition |
| --- | --- | --- |
| O=C(CSc1nnc(-c2ccncc2)n1Cc1ccco1)N1c2ccccc2Sc2ccc(Cl)cc21 | inconclusive: 22.4 µM [inhibitor, single point] |  |
| CCC(C)NC(=O)c1oc2ccc(S(=O)(=O)N3CCC4(CC3)OCCO4)cc2c1C (centres undefined) | inconclusive: 11.2 µM [inhibitor, partial curve, poor fit] |  |
| Cc1oc(-c2nc3ccccc3n2C)cc1C(=O)c1ccccc1 | active: 17.8 µM |  |
| CN(Cc1nc(Cc2ccccc2F)no1)Cc1cccc2ncccc12 | inconclusive: 15.8 µM [inhibitor, partial curve, poor fit] |  |
| Clc1ccc(-c2nnc(NCCN3CCCC3)c3ccccc23)cc1 | inconclusive: 0.891 µM [inhibitor, full curve, poor fit] |  |
| Cc1c(C(=O)OCc2nc3scc(-c4ccccc4)c3c(=O)[nH]2)cccc1[N+](=O)[O-] | inconclusive: 14.1 µM [inhibitor, partial curve, poor fit] |  |
| COc1ccc(OC)c(C(=O)/C=C/c2ccccc2C(F)(F)F)c1 | inconclusive: 20 µM [inhibitor, partial curve, poor fit] |  |
| Cc1c(CCOC(=O)C23CC4(C)CC(C)(CC(C)(C4)C2)C3)sc[n+]1CC(=O)c1ccccc1 | inconclusive: 28.2 µM [inhibitor, partial curve, poor fit] |  |
| COc1ccc(-c2nnc(C3CCN(S(=O)(=O)c4ccc(C)c(C)c4)CC3)o2)cc1 | inconclusive: 7.94 µM [inhibitor, partial curve] |  |
| CC(C)CNC(=O)c1cccc(NC(=O)c2ccc(Cl)c([N+](=O)[O-])c2)c1 | inconclusive: 28.2 µM [inhibitor, single point] |  |
| c1ccc2c(N3CCOCC3)nc(-c3ccncc3)nc2c1 | inconclusive: 35.5 µM [inhibitor, partial curve, poor fit] |  |
| COc1ccc2c(c[n+](C)c3c4cc5c(cc4ccc23)OCO5)c1OC | inconclusive: 10 µM [inhibitor, full curve, poor fit] |  |
| CN(CCOc1ccc(Cl)cc1)CC(=O)Nc1ccc(OC(F)(F)F)cc1 |  | inactive: -33.4% |
| O=C(NC(=S)Nc1ccc(CN2CCOCC2)cc1)c1ccc(-c2cccc(Cl)c2)o1 | inconclusive: 35.5 µM [inhibitor, partial curve, poor fit] |  |
| COc1ccc2[nH]c3c(NCCC4=CCCCC4)ncnc3c2c1 | inconclusive: 15.8 µM [inhibitor, single point] |  |
| C/C(=N\Nc1nc2ccccc2[nH]1)c1cc2ccccc2o1 | inconclusive: 39.8 µM [inhibitor, single point] |  |
| COc1ccc(/C=C/C(=O)Nc2ccccc2)cc1S(=O)(=O)N1CCOCC1 | active: 12.6 µM |  |
| C=C1C(=O)C23C(O)C1CCC2C12CCCC(C)(COC(C)=O)C1C(O)C3(O)OC2 (centres undefined) | inconclusive: 3.55 µM [inhibitor, full curve, poor fit] |  |
| CC(=O)Nc1ccc(Oc2cc(C#N)c(C#N)cc2N2CCCCCC2)cc1 | inconclusive: 17.8 µM [inhibitor, partial curve, poor fit] |  |
